PubChem BioAssay AID248 (DTP/NCI, 2004)
The list is a part of this screen's results and no random one: it is rich in T/C values a quarter to a half above the control, in often repeated tests (any T/C) and in doses without a T/C. Other doses and runs of a compound stand elsewhere. T/C is the treated group as % of the vehicle group. Some doses have a count of surviving animals in place of a T/C: the source files T/C as zero there, which appears to mark a toxic dose or a test without result, not a measured value. Some doses without a T/C left all or most animals alive at the check, yet need not have been tolerated: the source hardly ever lists a survival T/C far under the control, and the zero likely stands for such cases as well. Survivors were counted at the toxicity check, usually on the fifth day, unless a day is given; later deaths do not show. Schedules are NCI's codes, taken here to give the interval after Q, in days (D) or hours (H), and the number of doses after X. For survival time, this PubChem deposit counts one and a half times the control or more as active, and values a quarter to a half above the control carry no call in these data; other NCI protocols may use other cut-offs. Counts like (3×) count equal records among those shown. Some entries hold several experiments; their values stand side by side, smallest first. Some T/C values are followed by the survivors on the day toxicity was checked, most often the fifth; without a count, all were alive then.

System: L1210 leukemia ip in BDF1 mice, survival T/C
Experiment: NCI In Vivo Anticancer Drug Screen. Data for tumor model L1210 Leukemia (intraperitoneal) in B6D2F1 (BDF1) mice
Settings: T/C endpoint: mean survival time, higher T/C = longer survival
[1] = dose: 50.0 mg/kg/injection, schedule: Q04DX003 (ip), vehicle: saline
[2] = dose: 100.0 mg/kg/injection, schedule: Q04DX003 (ip), vehicle: saline
[3] = dose: 200.0 mg/kg/injection, schedule: Q04DX003 (ip), vehicle: saline
[4] = dose: 200.0 mg/kg/injection, schedule: Q04DX003 (ip), vehicle: Klucel (hydroxypropylcellulose) (HPC)
[5] = dose: 400.0 mg/kg/injection, schedule: Q04DX003 (ip), vehicle: Klucel (hydroxypropylcellulose) (HPC)
[6] = dose: 400.0 mg/kg/injection, schedule: Q04DX003 (ip), vehicle: saline
[7] = dose: 400.0 mg/kg/injection, schedule: Q01DX001 (ip), vehicle: other
[8] = dose: 100.0 mg/kg/injection, schedule: Q01DX001 (ip), vehicle: saline
[9] = dose: 25.0 mg/kg/injection, schedule: Q01DX009 (ip), vehicle: saline
[10] = dose: 200.0 mg/kg/injection, schedule: Q01DX009 (ip), vehicle: saline with Tween-80
[11] = dose: 400.0 mg/kg/injection, schedule: Q01DX009 (ip), vehicle: saline with Tween-80
[12] = dose: 400.0 mg/kg/injection, schedule: Q04DX003 (ip), vehicle: saline with Tween-80
[13] = dose: 200.0 mg/kg/injection, schedule: Q04DX003 (ip), vehicle: saline with Tween-80

Compound: Cc1ccc(NC(=O)N(CCCl)N=O)cc1NC(=O)c1ccccc1
- T/C (dose: 0.9 mg/kg/injection, schedule: Q01DX009 (ip), vehicle: carboxymethylcellulose (CMC)): 130 % of control
- T/C (dose: 1.8 mg/kg/injection, schedule: Q01DX009 (ip), vehicle: carboxymethylcellulose (CMC)): 133 % of control
- T/C (dose: 3.0 mg/kg/injection, schedule: Q01DX009 (ip), vehicle: carboxymethylcellulose (CMC)): 126 % of control
- T/C (dose: 4.4 mg/kg/injection, schedule: Q01DX009 (ip), vehicle: carboxymethylcellulose (CMC)): 131 % of control
- T/C (dose: 6.7 mg/kg/injection, schedule: Q01DX009 (ip), vehicle: carboxymethylcellulose (CMC)): 131 % of control
- T/C (dose: 10.0 mg/kg/injection, schedule: Q01DX009 (ip), vehicle: carboxymethylcellulose (CMC)): 146 % of control [5 of 6 alive]
- T/C (dose: 52.0 mg/kg/injection, schedule: Q01DX001 (ip), vehicle: Klucel (hydroxypropylcellulose) (HPC)): 148 % of control
- T/C (dose: 53.0 mg/kg/injection, schedule: Q01DX001 (ip), vehicle: carboxymethylcellulose (CMC)): 143 % of control
- T/C (dose: 80.0 mg/kg/injection, schedule: Q01DX001 (ip), vehicle: carboxymethylcellulose (CMC)): 138 % of control
- T/C (dose: 120.0 mg/kg/injection, schedule: Q01DX001 (ip), vehicle: carboxymethylcellulose (CMC)): 139 % of control
- T/C (dose: 177.0 mg/kg/injection, schedule: Q01DX001 (ip), vehicle: carboxymethylcellulose (CMC)): 139 and 146 % of control
- T/C (dose: 177.0 mg/kg/injection, schedule: Q01DX009 (ip), vehicle: carboxymethylcellulose (CMC)): 125 and 144 % of control
- T/C (dose: 266.0 mg/kg/injection, schedule: Q01DX001 (ip), vehicle: carboxymethylcellulose (CMC)): 146 % of control
- T/C (dose: 266.0 mg/kg/injection, schedule: Q01DX009 (ip), vehicle: carboxymethylcellulose (CMC)): 141 % of control [5 of 6 alive]
- survivor count (dose: 400.0 mg/kg/injection, schedule: Q01DX009 (ip), vehicle: carboxymethylcellulose (CMC)): 6 of 6
- T/C (dose: 600.0 mg/kg/injection, schedule: Q01DX001 (ip), vehicle: carboxymethylcellulose (CMC)): 148 % of control

Compound: CC1(C)CN1C1=C(F)C(=O)C(N2CC2(C)C)=C(F)C1=O
- survivor count [1]: 3 of 6
- survivor count [2]: 0 of 6

Compound: CCN(CC)CCOC(=O)Nc1ccccc1
- survivor count [3]: 0 of 6

Compound: O=[N+]([O-])CCCl
- survivor count (dose: 40.0 mg/kg/injection, schedule: Q04DX003 (ip), vehicle: Klucel (hydroxypropylcellulose) (HPC)): 0 of 6
- survivor count (dose: 80.0 mg/kg/injection, schedule: Q04DX003 (ip), vehicle: Klucel (hydroxypropylcellulose) (HPC)): 0 of 6
- survivor count (dose: 100.0 mg/kg/injection, schedule: Q04DX003 (ip), vehicle: Klucel (hydroxypropylcellulose) (HPC)): 1 of 6
- survivor count [4]: 1 of 6
- survivor count [5]: 0 of 6

Compound: [Cl][Dy]([Cl])[Cl]
- survivor count [6]: 1 of 6

Compound: CCC(CC)NC(CC)COC(=O)c1ccc(N)cc1 (configuration not stated)
- survivor count (dose: 300.0 mg/kg/injection, schedule: Q01DX001 (ip), vehicle: other): 1 of 6

Compound: CCCCN(C)N=Nc1c(Cl)cc(Cl)cc1C(N)=O
- T/C (dose: 100.0 mg/kg/injection, schedule: Q01DX009 (ip), vehicle: Klucel (hydroxypropylcellulose) (HPC)): 143 % of control
- T/C (dose: 177.0 mg/kg/injection, schedule: Q04DX003 (ip), vehicle: Klucel (hydroxypropylcellulose) (HPC)): 128 % of control
- T/C [4]: 132 % of control
- T/C (dose: 264.0 mg/kg/injection, schedule: Q04DX003 (ip), vehicle: Klucel (hydroxypropylcellulose) (HPC)): 138 % of control
- T/C [7]: 129 % of control
- survivor count (dose: 400.0 mg/kg/injection, schedule: Q01DX009 (ip), vehicle: Klucel (hydroxypropylcellulose) (HPC)): 0 of 6
- T/C [5]: 134 % of control
- T/C (dose: 600.0 mg/kg/injection, schedule: Q01DX001 (ip), vehicle: Klucel (hydroxypropylcellulose) (HPC)): 138 % of control [5 of 6 alive]
- survivor count (dose: 600.0 mg/kg/injection, schedule: Q04DX003 (ip), vehicle: Klucel (hydroxypropylcellulose) (HPC)): 4 of 6

Compound: CN(C)/N=N/c1ncn[nH]1
- T/C (dose: 12.0 mg/kg/injection, schedule: Q01DX009 (ip), vehicle: saline): 147 % of control
- T/C (dose: 25.0 mg/kg/injection, schedule: Q04DX003 (ip), vehicle: saline): 127 % of control
- T/C (dose: 33.0 mg/kg/injection, schedule: Q04DX003 (ip), vehicle: saline): 133 % of control
- T/C [1]: 145 % of control (2×)
- T/C (dose: 75.0 mg/kg/injection, schedule: Q04DX003 (ip), vehicle: saline): 131 % of control
- T/C [8]: 145 % of control

Compound: OCC1OC(n2ccc3c2ncn2ccnc32)C(O)C1O (configuration not stated)
- survivor count (dose: 200.0 mg/kg/injection, schedule: Q01DX005 (ip), vehicle: saline): 2 of 6
- survivor count (dose: 200.0 mg/kg/injection, schedule: Q01DX009 (ip), vehicle: saline): 5 of 6

Compound: C=CC[P+](Cc1cccc(OC)c1)(c1ccccc1)c1ccccc1
- survivor count [1]: 4 of 6
- survivor count [2]: 2 of 6
- survivor count [3]: 0 of 6
- survivor count [6]: 0 of 6

Compound: O=C(O)C1C(C(=O)O)C23CC2(C(=O)O)C2(C(=O)O)CCC3=C3CCCC312 (configuration not stated)
- survivor count [9]: 3 of 6
- survivor count (dose: 50.0 mg/kg/injection, schedule: Q01DX001 (ip), vehicle: saline): 1 of 6
- survivor count [8]: 1 of 6
- survivor count (dose: 200.0 mg/kg/injection, schedule: Q01DX001 (ip), vehicle: saline): 0 of 6
- survivor count (dose: 400.0 mg/kg/injection, schedule: Q01DX001 (ip), vehicle: saline): 0 of 6

Compound: COc1cc2ccnc(Cc3ccccc3)c2cc1OC
- survivor count [10]: 3 of 6
- survivor count [11]: 0 of 6
- survivor count [12]: 4 of 6

Compound: CCCC(C(=O)O)C1=CCCC1 (configuration not stated)
- survivor count [10]: 2 of 6
- survivor count [11]: 2 of 6

Compound: CC(NC(C)c1ccccc1)c1ccccc1 (configuration not stated)
- survivor count (dose: 200.0 mg/kg/injection, schedule: Q01DX009 (ip), vehicle: Klucel (hydroxypropylcellulose) (HPC)): 3 of 6
- survivor count [5]: 0 of 6

Compound: CCCCC1CN=C(c2ccc(NC(=O)c3ccc(C(=O)Nc4ccc(C5=NCC(CCCC)CN5)cc4)c(Cl)c3)cc2)NC1 (configuration not stated)
- T/C (dose: 11.0 mg/kg/injection, schedule: Q01DX015 (ip), vehicle: methylcellulose (MC)): 125 % of control
- T/C (dose: 31.0 mg/kg/injection, schedule: Q01DX015 (ip), vehicle: methylcellulose (MC)): 128 % of control
- survivor count (dose: 125.0 mg/kg/injection, schedule: Q01DX015 (ip), vehicle: methylcellulose (MC)): 3 of 6
- survivor count (dose: 250.0 mg/kg/injection, schedule: Q01DX015 (ip), vehicle: methylcellulose (MC)): 1 of 6

Compound: Cc1cccc([N+](=O)[O-])n1
- survivor count (dose: 100.0 mg/kg/injection, schedule: Q01DX009 (ip), vehicle: saline with Tween-80): 5 of 6
- survivor count [13]: 4 of 6
- survivor count [12]: 4 of 6

Compound: O=S1(=O)CC(Cl)C(Cl)C1 (configuration not stated)
- survivor count (dose: 25.0 mg/kg/injection, schedule: Q01DX009 (ip), vehicle: other): 5 of 6
- survivor count [9]: 3 of 6
- survivor count (dose: 50.0 mg/kg/injection, schedule: Q01DX001 (ip), vehicle: saline with Tween-80): 1 of 6
- survivor count (dose: 50.0 mg/kg/injection, schedule: Q01DX009 (ip), vehicle: other): 0 of 6
- survivor count (dose: 50.0 mg/kg/injection, schedule: Q01DX009 (ip), vehicle: saline): 0 of 6
- survivor count (dose: 100.0 mg/kg/injection, schedule: Q01DX001 (ip), vehicle: other): 2 of 6
- survivor count (dose: 100.0 mg/kg/injection, schedule: Q04DX003 (ip), vehicle: saline with Tween-80): 0 of 6
- survivor count (dose: 200.0 mg/kg/injection, schedule: Q01DX001 (ip), vehicle: other): 3 of 6
- survivor count [13]: 0 of 6
- survivor count [7]: 0 of 6
- survivor count [12]: 0 of 6
